Test results: patent publication US7199170B2, “Non-xenoestrogenic stabilizers for organic materials” (Crompton Corporation, priority 1999, dated 2007)

Legend:
[1] = Hunter b Color, polyethylene; conditions: Table 11; stabilizer 0.2%, Naugard 10 0.1%
[2] = Long Term Heat Aging (ASTM D3045-92), polypropylene; conditions: oven 140° C.
[3] = Yellowness Index (ASTM D1925-70), polypropylene; conditions: Table 2; stabilizer 0.2%, Naugard 10 0.1%
[4] = Table 9, stabilizer 0.2%, Naugard 10 0.1%

Row | Substance | Hunter b Color, Fifth Pass [1] | Hunter b Color, First Pass [1] | Hunter b Color, Third Pass [1] | LTHA [2, 4] [days] | Yellowness Index, Fifth Pass [3] | Yellowness Index, First Pass [3] | Yellowness Index, Third Pass [3] | LTHA ([2]; Table 3, stabilizer 0.2%, Naugard 10 0.1%) [days] | LTHA ([2]; Table 6, stabilizer 0.05%, Naugard 10 0.05%) [days]
1 | Bis(2,4-di-t-butylphenyl)octylphosphite [Stabilizer A] | −0.30 | −0.45 | −0.43 | 42 | – | – | – | – | –
2 | tris(nonylphenyl)phosphite [TNPP] | −0.13 | −0.41 | −0.18 | 50 | 25 | 13 | 18 | 66 | 27
